The source of these data is publication PMC7199855, “GRAF2, WDR44, and MICAL1 mediate Rab8/10/11–dependent export of E-cadherin, MMP14, and CFTR ΔF508” (The Journal of Cell Biology, 2020).

By UniProt entry, the sequences of proteins in these tests, tags left out.
UniProt Q8IY33: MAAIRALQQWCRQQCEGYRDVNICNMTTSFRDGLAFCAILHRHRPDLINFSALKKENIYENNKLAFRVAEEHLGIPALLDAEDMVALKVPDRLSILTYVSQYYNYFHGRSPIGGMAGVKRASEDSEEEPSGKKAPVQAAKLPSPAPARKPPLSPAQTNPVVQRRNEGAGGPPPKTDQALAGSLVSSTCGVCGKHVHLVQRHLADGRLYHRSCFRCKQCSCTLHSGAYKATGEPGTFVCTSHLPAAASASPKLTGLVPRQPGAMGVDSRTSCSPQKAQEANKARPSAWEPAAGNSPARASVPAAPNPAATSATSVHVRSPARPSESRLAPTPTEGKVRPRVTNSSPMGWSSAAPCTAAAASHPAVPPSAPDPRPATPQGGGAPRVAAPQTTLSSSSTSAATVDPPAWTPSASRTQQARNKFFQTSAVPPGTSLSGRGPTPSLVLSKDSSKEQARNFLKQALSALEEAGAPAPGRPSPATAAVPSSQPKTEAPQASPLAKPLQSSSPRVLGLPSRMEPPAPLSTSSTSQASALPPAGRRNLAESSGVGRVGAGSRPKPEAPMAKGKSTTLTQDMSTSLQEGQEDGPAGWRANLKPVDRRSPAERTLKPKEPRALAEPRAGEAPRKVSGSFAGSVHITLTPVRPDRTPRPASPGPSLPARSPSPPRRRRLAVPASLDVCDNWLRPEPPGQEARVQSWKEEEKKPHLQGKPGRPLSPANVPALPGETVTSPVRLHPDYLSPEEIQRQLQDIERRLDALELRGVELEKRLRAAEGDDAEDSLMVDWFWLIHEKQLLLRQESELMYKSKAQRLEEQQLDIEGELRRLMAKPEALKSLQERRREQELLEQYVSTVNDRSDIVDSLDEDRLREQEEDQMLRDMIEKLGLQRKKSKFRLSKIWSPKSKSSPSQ
UniProt Q8N3F8: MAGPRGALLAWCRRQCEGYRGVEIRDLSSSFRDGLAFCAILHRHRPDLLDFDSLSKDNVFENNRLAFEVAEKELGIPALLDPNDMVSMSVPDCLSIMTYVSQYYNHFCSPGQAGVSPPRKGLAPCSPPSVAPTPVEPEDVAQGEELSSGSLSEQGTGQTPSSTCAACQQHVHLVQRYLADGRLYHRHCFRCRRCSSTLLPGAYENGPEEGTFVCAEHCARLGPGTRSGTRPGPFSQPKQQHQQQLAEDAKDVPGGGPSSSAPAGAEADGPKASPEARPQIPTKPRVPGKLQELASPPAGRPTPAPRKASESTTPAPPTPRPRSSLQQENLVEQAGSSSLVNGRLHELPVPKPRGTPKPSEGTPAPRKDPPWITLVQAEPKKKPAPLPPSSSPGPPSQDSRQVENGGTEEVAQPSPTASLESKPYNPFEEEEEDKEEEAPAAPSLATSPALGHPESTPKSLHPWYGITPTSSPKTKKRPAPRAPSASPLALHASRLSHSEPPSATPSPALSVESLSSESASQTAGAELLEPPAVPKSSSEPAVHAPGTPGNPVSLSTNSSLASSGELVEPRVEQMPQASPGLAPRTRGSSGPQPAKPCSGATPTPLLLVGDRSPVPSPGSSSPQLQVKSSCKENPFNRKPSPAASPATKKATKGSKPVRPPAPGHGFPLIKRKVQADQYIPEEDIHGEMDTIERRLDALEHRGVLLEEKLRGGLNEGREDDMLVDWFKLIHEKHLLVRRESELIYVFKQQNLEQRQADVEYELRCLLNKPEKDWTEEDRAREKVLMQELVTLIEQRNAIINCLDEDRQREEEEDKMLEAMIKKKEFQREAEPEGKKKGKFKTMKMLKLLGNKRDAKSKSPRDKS

Common to all, as to assay: co-IP; transfected 293T, IP with α-GFP and Protein G Sepharose; 20 mM Hepes pH 7.4, 150 mM NaCl, 2 mM EDTA, 1% IGEPAL CA-630; Western blot
For orientation: A western blot detects proteins with antibodies after separation by electrophoresis.

One test addresses GFP–MICAL-L2 (human) (UniProt Q8IY33).
The next test deals with GFP–MICAL-L1 (human) (UniProt Q8N3F8).
A further test addresses T1, GFP-WDR44 ΔPro (human) (UniProt Q5JSH3).
T1 sequence: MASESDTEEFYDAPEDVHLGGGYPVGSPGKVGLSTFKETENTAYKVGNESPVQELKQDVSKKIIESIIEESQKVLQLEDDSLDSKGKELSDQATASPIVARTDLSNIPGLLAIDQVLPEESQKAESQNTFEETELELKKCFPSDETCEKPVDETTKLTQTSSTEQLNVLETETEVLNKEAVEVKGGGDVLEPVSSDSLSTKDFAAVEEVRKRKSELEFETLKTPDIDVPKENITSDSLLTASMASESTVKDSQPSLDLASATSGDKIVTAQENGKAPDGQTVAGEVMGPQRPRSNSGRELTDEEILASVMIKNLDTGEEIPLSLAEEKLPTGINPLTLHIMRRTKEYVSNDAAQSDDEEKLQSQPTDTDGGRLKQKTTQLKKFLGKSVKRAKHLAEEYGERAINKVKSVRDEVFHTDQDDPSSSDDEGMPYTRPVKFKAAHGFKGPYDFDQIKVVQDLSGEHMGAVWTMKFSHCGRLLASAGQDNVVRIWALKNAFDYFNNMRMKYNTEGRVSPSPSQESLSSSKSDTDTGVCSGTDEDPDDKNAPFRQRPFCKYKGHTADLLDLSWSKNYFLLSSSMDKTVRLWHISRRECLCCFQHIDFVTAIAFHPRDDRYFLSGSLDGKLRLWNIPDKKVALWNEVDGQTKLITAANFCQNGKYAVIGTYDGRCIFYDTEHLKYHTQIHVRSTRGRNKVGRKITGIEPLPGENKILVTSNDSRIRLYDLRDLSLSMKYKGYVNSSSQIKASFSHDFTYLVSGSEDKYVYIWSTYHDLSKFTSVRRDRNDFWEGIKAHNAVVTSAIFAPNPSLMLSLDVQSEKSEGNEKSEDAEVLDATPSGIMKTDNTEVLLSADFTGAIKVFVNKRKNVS

In a further test the target is T2, GFP–MICAL1 G3W (human) (UniProt Q8TDZ2).
T2 sequence: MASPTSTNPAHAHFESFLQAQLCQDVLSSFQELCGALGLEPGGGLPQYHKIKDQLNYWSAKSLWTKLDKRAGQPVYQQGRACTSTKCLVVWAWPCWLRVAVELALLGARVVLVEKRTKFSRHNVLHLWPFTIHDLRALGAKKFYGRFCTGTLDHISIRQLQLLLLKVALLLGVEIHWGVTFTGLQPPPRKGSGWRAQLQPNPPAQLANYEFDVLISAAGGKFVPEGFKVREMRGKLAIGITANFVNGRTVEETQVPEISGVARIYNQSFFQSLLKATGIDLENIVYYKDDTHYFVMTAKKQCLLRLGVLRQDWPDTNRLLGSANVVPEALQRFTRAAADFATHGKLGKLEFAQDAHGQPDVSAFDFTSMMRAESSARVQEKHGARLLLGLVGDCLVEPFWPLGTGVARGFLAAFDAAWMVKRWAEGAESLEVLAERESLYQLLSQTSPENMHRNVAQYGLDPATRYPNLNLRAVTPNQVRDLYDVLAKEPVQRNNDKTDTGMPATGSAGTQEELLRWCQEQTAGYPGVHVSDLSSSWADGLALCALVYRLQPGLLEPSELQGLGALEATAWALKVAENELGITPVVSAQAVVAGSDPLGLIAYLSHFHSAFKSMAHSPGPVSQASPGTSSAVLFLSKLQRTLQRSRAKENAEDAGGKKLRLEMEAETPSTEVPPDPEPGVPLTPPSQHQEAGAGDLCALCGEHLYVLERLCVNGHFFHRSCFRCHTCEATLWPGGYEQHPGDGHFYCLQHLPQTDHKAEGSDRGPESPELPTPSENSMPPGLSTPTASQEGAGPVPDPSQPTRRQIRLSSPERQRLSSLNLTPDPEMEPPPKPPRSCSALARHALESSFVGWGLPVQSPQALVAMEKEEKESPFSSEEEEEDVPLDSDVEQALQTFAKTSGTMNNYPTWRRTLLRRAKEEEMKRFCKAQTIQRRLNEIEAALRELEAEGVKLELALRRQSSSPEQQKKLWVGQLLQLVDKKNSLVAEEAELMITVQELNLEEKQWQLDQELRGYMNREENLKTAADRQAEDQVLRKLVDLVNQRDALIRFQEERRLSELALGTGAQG

These are yes or no findings as the source states them, for the method shown. Binding seen in cells or lysates may run through a third protein. Some entries that bind do so weakly or less than the wild type. Tags and fused reporters may be left off the sequences shown.

B1: GRAF1b-myc (protein, UniProt Q9UNA1-2 1-759)
chain: MGLPALEFSDCCLDSPHFRETLKSHEAELDKTNKFIKELIKDGKSLISALKNLSSAKRKFADSLNEFKFQCIGDAETDDEMCIARSLQEFATVLRNLEDERIRMIENASEVLITPLEKFRKEQIGAAKEAKKKYDKETEKYCGILEKHLNLSSKKKESQLQEADSQVDLVRQHFYEVSLEYVFKVQEVQERKMFEFVEPLLAFLQGLFTFYHHGYELAKDFGDFKTQLTISIQNTRNRFEGTRSEVESLMKKMKENPLEHKTISPYTMEGYLYVQEKRHFGTSWVKHYCTYQRDSKQITMVPFDQKSGGKGGEDESVILKSCTRRKTDSIEKRFCFDVEAVDRPGVITMQALSEEDRRLWMEAMDGREPVYNSNKDSQSEGTAQLDSIGFSIIRKCIHAVETRGINEQGLYRIVGVNSRVQKLLSVLMDPKTASETETDICAEWEIKTITSALKTYLRMLPGPLMMYQFQRSFIKAAKLENQESRVSEIHSLVHRLPEKNRQMLQLLMNHLANVANNHKQNLMTVANLGVVFGPTLLRPQEETVAAIMDIKFQNIVIEILIENHEKIFNTVPDMPLTNAQLHLSRKKSSDSKPPSCSERPLTLFHTVQSTEKQEQRNSIINSSLESVSSNPNSILNSSSSLQPNMNSSDPDLAVVKPTRPNSLPPNPSPTSPLSPSWPMFSAPSSPMPTSSTSSDSSPVSTPFRKAKALYACKAEHDSELSFTAGTVFDNVHPSQEPGWLEGTLNGKTGLIPENYVEFL
Consider B1, for which the binding entry with GFP–MICAL-L2 (human) was “no binding”; with GFP–MICAL-L1 (human), “no binding”; with GFP-WDR44 ΔPro (human) it was “no binding”; in the test with GFP–MICAL1 G3W (human) it was “binds”.
